Drawing on publication doi:10.1101/2020.02.14.949289, this text covers binding for one substance.

The assay addresses T1, Flag-SPRTN^wt (UniProt Q9H040).
T1 sequence: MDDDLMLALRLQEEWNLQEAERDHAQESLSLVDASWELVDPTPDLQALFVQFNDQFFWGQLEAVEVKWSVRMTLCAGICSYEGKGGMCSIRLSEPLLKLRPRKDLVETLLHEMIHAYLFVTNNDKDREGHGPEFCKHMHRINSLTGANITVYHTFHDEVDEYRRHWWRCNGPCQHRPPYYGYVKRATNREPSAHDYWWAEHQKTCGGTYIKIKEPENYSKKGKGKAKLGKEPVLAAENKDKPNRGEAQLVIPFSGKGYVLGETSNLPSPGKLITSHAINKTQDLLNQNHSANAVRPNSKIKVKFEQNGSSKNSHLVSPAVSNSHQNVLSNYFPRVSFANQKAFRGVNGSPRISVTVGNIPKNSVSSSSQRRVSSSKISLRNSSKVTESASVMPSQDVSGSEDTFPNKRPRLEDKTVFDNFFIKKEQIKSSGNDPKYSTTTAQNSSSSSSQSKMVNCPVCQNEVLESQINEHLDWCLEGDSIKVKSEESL
The assay can be described thus: co-IP.

These are yes or no findings as the source states them, for the method shown. In cells and extracts the contact can be indirect. Some entries that bind do so weakly or less than the wild type. Where a sequence is shown, tags or fusion partners need not be part of it.

In the case of ATPase p97 (from UniProt P55072 1-806), the binding result is listed as “binds”.
